Reference: PMC9945542
No constants are given. Whether binding was seen depends on the method and setting. In cells and extracts the contact can be indirect. Some entries that bind do so weakly or less than the wild type.

The chains behind the UniProt entries cited, without tags or fusion partners. Residues count along the entry.
UniProt P23818, residues 19-907: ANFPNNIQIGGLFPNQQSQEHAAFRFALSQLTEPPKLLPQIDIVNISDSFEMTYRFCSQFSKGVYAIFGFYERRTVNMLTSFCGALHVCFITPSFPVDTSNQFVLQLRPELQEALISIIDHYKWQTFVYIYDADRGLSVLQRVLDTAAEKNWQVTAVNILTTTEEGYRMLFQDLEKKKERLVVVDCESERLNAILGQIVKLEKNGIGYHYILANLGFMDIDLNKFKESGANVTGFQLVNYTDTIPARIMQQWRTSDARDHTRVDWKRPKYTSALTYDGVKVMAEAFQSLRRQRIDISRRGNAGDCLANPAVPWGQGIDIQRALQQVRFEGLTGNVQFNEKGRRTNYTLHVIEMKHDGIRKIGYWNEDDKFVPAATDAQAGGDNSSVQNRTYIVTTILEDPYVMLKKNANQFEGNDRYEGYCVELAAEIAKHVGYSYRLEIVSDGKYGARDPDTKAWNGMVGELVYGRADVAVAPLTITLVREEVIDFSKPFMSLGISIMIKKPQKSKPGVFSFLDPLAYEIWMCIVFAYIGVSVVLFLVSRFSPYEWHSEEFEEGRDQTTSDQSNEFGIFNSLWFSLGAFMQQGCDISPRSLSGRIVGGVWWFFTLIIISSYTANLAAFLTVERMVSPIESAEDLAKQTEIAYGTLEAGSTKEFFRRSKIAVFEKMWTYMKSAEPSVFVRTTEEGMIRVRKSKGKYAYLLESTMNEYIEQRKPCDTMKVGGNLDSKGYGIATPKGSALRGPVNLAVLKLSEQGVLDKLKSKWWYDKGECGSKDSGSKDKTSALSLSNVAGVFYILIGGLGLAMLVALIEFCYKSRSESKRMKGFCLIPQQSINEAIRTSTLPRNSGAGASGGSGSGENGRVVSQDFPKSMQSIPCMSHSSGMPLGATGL
UniProt P23819, residues 25-883: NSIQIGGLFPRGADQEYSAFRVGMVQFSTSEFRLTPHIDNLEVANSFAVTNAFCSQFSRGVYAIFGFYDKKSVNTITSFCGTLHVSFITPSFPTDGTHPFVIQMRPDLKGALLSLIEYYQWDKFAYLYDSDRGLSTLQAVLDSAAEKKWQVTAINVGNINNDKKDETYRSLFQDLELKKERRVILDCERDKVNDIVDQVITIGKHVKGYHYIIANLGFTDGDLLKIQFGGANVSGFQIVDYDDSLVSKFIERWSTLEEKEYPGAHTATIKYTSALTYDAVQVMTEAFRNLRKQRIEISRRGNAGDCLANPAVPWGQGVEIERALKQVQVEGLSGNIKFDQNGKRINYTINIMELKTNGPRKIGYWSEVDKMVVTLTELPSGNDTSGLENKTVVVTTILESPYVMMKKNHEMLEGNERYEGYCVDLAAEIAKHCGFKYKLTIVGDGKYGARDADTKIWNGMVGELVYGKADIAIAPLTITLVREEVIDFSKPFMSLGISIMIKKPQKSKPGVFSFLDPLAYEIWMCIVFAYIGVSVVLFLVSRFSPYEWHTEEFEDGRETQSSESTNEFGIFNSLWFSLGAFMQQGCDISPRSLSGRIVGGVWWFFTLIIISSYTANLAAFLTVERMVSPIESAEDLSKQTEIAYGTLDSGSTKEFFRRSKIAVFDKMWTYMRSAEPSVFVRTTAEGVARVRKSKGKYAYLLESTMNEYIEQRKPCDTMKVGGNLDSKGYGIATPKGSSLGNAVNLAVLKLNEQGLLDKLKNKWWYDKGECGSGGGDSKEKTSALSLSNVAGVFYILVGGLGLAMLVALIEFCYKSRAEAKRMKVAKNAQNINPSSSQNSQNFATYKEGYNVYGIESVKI

Columns and labels:
[1] = target: endogenous GluA1 (glutamate receptor 1) of mouse brain (mouse (endogenous in mouse brain)) (UniProt P23818); assay: co-IP; mouse brain tissue lysate; precipitated with 5 ug anti-CYLD, anti-GluA1 or anti-GluA2 antibody (IgG as control) overnight at 4°C, protein A + G agarose 3-4 h, three washes with cold lysis buffer; immunoblot
[2] = target: endogenous GluA2 (glutamate receptor 2) of mouse brain (mouse (endogenous in mouse brain)) (UniProt P23819); assay: as above

binding [1]: binds | binding [2]: binds
B1: endogenous CYLD of mouse brain (enzyme, UniProt Q80TQ2 1-952)
chain: MSSGLWSQEKVTSPYWEERIFYLLLQECSVTDKQTQKLLKVPKGSIGQYIQDRSVGHSRVPSTKGKKNQIGLKILEQPHAVLFVDEKDVVEINEKFTELLLAITNCEERLSLFRNRLRLSKGLQVDVGSPVKVQLRSGEEKFPGVVRFRGPLLAERTVSGIFFGVELLEEGRGQGFTDGVYQGKQLFQCDEDCGVFVALDKLELIEDDDNGLESDFAGPGDTMQVEPPPLEINSRVSLKVGESTESGTVIFCDVLPGKESLGYFVGVDMDNPIGNWDGRFDGVQLCSFASVESTILLHINDIIPDSVTQERRPPKLAFMSRGVGDKGSSSHNKPKVTGSTSDPGSRNRSELFYTLNGSSVDSQQSKSKNPWYIDEVAEDPAKSLTEMSSDFGHSSPPPQPPSMNSLSSENRFHSLPFSLTKMPNTNGSMAHSPLSLSVQSVMGELNSTPVQESPPLPISSGNAHGLEVGSLAEVKENPPFYGVIRWIGQPPGLSDVLAGLELEDECAGCTDGTFRGTRYFTCALKKALFVKLKSCRPDSRFASLQPVSNQIERCNSLAFGGYLSEVVEENTPPKMEKEGLEIMIGKKKGIQGHYNSCYLDSTLFCLFAFSSALDTVLLRPKEKNDIEYYSETQELLRTEIVNPLRIYGYVCATKIMKLRKILEKVEAASGFTSEEKDPEEFLNILFHDILRVEPLLKIRSAGQKVQDCNFYQIFMEKNEKVGVPTIQQLLEWSFINSNLKFAEAPSCLIIQMPRFGKDFKLFKKIFPSLELNITDLLEDTPRQCRICGGLAMYECRECYDDPDISAGKIKQFCKTCSTQVHLHPRRLNHSYHPVSLPKDLPDWDWRHGCIPCQKMELFAVLCIETSHYVAFVKYGKDDSAWLFFDSMADRDGGQNGFNIPQVTPCPEVGEYLKMSLEDLHSLDSRRIQGCARRLLCDAYMCMYQSPTMSLYK
